Data on eleven substances can be found in publication PMC11900302 (2025).

This series is described as follows: general procedure: solution-phase peptide synthesis; HBTU/DIPEA.

With “N-(N-[N^α-(L-glycyl)-L-glutaminyl]-L-prolyl)-4-morpholinyl-L-homoalanine”, the step yield (late stage modification step) came out at 99%. Still for that read-out and setting: as for “N-(N-[N^α-(L-glycyl)-L-glutaminyl]-L-prolyl)-4-thiomorpholinyl-L-homoalanine”, the figure is 99%. In turn, “N-(N-[N^α-(N-tert-butoxycarbonyl-L-glycyl)-N^δ-trityl-L-glutaminyl]-L-prolyl)-4-hydroxy-L-proline methyl ester” displayed a step yield (coupling step) of 87%. The substance “N-Acetoxymethyl-N-(N-[N^α-(N-tert-butoxycarbonyl-L-glycyl)-N^δ-trityl-L-glutaminyl]-L-prolyl)-4-(2S-methyloxycarbonyl-1-pyrrolidinyl)-L-homoalanine methyl ester” had a step yield (coupling step) of 69%. Still for that read-out and setting: as for “N-Acetoxymethyl-N-(N-[N^α-(N-tert-butoxycarbonyl-L-glycyl)-N^δ-trityl-L-glutaminyl]-L-prolyl)-4-(morpholinyl)-L-homoalanine methyl ester”, the figure is 80%; as for “N-Acetoxymethyl-N-(N-[N^α-(N-tert-butoxycarbonyl-L-glycyl)-N^δ-trityl-L-glutaminyl]-L-prolyl)-4-(thiomorpholinyl)-L-homoalanine methyl ester”, 73%. Turning to “N^α-(N-[N^α-(L-glycyl)-L-asparaginyl]-L-prolyl)-N^ω-tosyl-L-arginine”, the step yield (late stage modification step) came out at 99%. Same read-out and setting: for “N^α-(N-[N^α-(L-glycyl)-L-glutaminyl]-L-prolyl)-4-hydroxy-L-proline” the value was 99%; for “N^α-(N-[N^α-(L-glycyl)-L-glutaminyl]-L-prolyl)-N^ω-tosyl-L-arginine”, 99%.

Turning to “N^α-(N-[N^α-(N-tert-butoxycarbonyl-L-glycyl)-N^γ-trityl-L-asparaginyl]-L-prolyl)-N^ω-tosyl-L-arginine methyl ester”, the step yield (coupling step) is 83%.

Substance “N^α-(N-[N^α-(N-tert-butoxycarbonyl-L-glycyl)-N^δ-trityl-L-glutaminyl]-L-prolyl)-N^ω-tosyl-L-arginine methyl ester” displayed a step yield (coupling step) of 87%.
